Data reported in publication PMC4342579, “A new cytoplasmic interaction between junctin and ryanodine receptor Ca^2+ release channels” (Journal of Cell Science, 2015).
No constants are given. Whether binding was seen depends on the method and setting.

Amino acid sequences for entries named in this document (tags omitted). A change or cut given only in a name is not applied to a line headed by its entry.
UniProt P11716: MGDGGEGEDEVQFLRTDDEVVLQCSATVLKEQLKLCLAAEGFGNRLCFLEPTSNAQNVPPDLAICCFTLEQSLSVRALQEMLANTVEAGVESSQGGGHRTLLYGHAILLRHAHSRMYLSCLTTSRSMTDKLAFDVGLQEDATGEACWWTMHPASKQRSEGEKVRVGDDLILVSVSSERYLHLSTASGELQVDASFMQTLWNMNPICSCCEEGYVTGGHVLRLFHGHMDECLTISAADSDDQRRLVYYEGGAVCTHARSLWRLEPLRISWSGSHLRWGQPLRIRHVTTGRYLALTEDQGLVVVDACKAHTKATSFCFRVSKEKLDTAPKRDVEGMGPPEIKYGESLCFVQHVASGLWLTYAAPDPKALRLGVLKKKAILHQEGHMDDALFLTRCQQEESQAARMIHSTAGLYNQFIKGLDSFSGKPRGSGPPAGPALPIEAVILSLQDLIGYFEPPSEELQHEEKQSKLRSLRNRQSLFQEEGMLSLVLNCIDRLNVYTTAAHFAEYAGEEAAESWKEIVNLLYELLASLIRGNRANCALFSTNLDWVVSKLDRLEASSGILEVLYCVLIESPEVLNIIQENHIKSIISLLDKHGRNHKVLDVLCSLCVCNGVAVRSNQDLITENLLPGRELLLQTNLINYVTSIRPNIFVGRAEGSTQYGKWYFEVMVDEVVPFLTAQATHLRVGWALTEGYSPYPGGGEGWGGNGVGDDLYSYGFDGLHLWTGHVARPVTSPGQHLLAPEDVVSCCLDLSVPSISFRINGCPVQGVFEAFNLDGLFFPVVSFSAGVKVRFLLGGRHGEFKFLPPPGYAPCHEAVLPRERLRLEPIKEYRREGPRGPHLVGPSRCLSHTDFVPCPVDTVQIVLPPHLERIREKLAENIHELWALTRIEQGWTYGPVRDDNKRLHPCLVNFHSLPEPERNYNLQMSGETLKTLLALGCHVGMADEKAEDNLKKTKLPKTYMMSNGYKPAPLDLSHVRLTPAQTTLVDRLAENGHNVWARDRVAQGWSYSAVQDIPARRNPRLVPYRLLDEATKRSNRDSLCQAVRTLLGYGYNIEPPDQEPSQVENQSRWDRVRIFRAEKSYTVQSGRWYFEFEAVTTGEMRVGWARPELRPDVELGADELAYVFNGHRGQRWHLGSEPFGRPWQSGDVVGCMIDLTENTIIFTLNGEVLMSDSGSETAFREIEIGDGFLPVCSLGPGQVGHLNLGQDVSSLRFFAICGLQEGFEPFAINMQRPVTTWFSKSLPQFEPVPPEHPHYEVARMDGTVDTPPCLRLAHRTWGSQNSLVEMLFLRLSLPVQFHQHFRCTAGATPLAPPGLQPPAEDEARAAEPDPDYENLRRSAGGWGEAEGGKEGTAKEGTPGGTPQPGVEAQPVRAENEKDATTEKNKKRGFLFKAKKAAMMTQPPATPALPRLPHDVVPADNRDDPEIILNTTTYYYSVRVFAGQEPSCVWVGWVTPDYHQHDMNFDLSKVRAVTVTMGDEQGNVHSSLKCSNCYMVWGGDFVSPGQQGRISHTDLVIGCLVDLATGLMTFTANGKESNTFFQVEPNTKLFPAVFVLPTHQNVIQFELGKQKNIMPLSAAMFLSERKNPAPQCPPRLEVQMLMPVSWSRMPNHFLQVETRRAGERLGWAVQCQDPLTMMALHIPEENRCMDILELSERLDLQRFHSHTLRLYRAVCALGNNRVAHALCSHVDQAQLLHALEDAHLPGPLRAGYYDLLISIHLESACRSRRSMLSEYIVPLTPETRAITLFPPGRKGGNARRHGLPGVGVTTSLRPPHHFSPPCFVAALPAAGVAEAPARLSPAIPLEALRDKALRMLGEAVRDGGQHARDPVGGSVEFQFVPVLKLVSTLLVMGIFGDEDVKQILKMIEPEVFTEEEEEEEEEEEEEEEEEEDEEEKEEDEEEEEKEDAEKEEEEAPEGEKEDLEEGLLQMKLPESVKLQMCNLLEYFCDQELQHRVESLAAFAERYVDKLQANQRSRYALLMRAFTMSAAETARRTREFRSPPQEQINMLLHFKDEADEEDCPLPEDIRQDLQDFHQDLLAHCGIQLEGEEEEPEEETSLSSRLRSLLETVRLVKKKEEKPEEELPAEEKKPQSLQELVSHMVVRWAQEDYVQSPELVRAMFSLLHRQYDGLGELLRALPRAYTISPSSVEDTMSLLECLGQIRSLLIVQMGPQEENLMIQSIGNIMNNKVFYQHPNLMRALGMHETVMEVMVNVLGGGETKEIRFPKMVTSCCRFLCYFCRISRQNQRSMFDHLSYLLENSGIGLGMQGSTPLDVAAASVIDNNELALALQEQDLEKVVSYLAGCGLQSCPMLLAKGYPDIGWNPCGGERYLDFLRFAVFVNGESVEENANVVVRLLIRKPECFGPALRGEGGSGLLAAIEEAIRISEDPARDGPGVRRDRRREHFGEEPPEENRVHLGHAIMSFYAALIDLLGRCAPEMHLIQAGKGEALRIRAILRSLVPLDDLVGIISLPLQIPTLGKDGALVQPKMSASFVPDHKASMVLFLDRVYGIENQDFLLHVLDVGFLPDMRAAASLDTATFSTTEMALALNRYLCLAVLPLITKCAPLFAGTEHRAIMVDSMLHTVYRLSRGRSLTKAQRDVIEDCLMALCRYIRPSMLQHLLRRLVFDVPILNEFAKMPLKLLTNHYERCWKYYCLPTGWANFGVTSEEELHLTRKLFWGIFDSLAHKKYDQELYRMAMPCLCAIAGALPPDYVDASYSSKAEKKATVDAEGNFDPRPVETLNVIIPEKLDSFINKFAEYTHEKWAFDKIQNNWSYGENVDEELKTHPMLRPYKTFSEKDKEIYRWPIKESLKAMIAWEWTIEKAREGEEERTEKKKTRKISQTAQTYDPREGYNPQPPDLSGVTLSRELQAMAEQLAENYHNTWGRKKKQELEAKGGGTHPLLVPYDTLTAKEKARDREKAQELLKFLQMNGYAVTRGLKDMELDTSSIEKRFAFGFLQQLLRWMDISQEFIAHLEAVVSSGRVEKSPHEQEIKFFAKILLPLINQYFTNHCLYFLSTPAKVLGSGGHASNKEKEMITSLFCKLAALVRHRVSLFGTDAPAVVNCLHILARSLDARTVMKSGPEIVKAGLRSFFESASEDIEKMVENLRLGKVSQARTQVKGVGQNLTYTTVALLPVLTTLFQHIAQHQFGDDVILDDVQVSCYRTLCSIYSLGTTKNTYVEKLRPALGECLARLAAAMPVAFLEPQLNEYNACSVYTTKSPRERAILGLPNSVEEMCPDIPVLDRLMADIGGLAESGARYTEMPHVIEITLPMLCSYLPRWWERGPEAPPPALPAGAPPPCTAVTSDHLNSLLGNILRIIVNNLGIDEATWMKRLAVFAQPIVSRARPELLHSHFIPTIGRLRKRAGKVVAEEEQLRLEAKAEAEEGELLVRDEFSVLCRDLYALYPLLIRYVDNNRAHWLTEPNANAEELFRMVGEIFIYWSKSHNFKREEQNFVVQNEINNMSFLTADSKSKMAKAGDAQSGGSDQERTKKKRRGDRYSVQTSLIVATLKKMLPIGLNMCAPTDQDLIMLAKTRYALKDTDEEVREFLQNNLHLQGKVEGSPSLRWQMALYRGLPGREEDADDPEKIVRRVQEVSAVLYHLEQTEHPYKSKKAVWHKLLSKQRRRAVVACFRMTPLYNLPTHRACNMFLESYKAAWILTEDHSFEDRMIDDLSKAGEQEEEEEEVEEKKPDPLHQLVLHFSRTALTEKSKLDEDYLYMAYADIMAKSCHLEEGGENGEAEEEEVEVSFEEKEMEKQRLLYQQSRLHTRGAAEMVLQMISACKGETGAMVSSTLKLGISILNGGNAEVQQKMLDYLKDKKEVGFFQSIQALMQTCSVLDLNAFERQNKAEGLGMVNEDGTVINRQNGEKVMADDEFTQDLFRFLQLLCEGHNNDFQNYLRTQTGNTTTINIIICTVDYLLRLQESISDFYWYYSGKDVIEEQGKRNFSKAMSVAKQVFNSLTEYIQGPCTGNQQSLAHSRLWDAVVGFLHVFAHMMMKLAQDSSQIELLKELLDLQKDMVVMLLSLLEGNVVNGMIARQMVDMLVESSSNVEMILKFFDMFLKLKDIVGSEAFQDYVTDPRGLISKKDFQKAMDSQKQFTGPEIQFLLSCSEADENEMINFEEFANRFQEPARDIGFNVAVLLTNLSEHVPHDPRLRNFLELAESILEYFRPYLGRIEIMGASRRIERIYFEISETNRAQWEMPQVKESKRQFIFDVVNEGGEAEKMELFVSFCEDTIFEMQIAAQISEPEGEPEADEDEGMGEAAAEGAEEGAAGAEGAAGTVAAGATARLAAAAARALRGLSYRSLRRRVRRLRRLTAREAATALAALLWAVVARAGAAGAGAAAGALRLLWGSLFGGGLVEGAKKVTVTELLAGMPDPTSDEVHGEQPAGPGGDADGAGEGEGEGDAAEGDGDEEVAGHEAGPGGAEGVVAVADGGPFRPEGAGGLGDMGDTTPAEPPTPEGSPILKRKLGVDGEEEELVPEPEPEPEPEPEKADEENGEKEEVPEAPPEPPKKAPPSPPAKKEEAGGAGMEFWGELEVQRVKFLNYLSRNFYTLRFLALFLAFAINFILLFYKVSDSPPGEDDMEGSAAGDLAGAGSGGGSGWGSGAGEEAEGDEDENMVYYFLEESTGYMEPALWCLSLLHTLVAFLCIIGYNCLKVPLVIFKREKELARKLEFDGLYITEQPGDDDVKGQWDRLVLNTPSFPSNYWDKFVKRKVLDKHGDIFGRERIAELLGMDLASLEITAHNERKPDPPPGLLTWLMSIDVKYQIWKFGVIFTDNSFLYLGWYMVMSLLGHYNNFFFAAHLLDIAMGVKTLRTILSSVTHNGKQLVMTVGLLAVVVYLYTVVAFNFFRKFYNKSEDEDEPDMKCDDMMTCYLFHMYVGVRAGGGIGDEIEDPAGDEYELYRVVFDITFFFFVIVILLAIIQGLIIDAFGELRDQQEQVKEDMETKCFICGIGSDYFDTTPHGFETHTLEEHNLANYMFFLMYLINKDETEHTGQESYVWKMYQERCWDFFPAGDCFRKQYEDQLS

Experiments:
[1] = molecular target: T1, scrambled Njun peptide, biotinylated; experiment: pull-down; NeutrAvidin–agarose affinity chromatography: biotinylated Njun or scrambled Njun on the agarose, recombinant RyR or RyR1 fragments (isolated from HEK293) incubated overnight at 4°C in PBS plus 0.1% SDS; RyR detected with 34C or anti-GFP antibody; both purified
T1 sequence (peptide, biotin on the N-terminus (peptides for affinity chromatography)): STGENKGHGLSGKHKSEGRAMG

[2] = molecular target: T2, Njun peptide, N-terminal cytoplasmic domain of junctin (residues 1–22), biotinylated; experiment: as above
T2 sequence (peptide, biotin on the N-terminus (peptides for affinity chromatography)): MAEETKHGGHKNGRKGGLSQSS

| Substance | binding [1] | binding [2] |
| --- | --- | --- |
| GFL (I), full-length recombinant rabbit RyR1, 5′ EGFP tagged (from UniProt P11716 1-5037) | no binding |  |
| RyR1 construct XII, amino acids 4254–4535 (from UniProt P11716 4254-4535) (domain or fragment) | no binding | no binding |
| RyR1 construct XIV, amino acids 1079–2156 (from UniProt P11716 1079-2156) (domain or fragment) | no binding |  |
